Measurements from patent US4280993A, “Process for determining the concentration of benzodiazepines in a body fluid” (priority 1978, dated 1981).

Columns and labels:
[1] = Recovery of lorazepam in biological fluids with extraction with ethyl acetate; design: species or system human
[2] = Recovery of lorazepam in biological fluids without extraction; design: species or system human
[3] = Blood (heparine), added 100 ng/ml
[4] = Blood (heparine), added 250 ng/ml
[5] = Blood (heparine), added 500 ng/ml
[6] = Plasma (heparine), added 100 ng/ml
[7] = Plasma (heparine), added 250 ng/ml
[8] = Plasma (heparine), added 500 ng/ml

**Q.** For `O=C1Nc2ccc(Cl)cc2C(c2ccccc2Cl)=NC1O` (stereo not shown) [lorazepam, 7-chloro-5-(2-chlorophenyl)-3-hydroxy-2,3-dihydro-1H-1,4-benzodiazepin-2-one], which Recovery ([1]; Blood (EDTA), added 10 ng/ml) is on record?
**A.** 93%

**Q.** What about the Recovery ([1]; Blood (citrate), added 10 ng/ml) of the same molecule?
**A.** 104%

**Q.** What about the Recovery ([1]; Blood (heparine + NaF), added 3 ng/ml) of the same molecule?
**A.** 83%

**Q.** And the Recovery ([1]; Blood (heparine + NaF), added 10 ng/ml)?
**A.** 90%

**Q.** And the Recovery ([1]; Blood (heparine + NaF), added 30 ng/ml)?
**A.** 85%

**Q.** And the Recovery ([1]; Blood (heparine), added 3 ng/ml)?
**A.** 97%

**Q.** And the Recovery ([1]; Blood (heparine), added 10 ng/ml)?
**A.** 90%

**Q.** What about the Recovery ([1]; Blood (heparine), added 30 ng/ml) of the same molecule?
**A.** 76%

**Q.** And the Recovery ([1]; Plasma (EDTA), added 10 ng/ml)?
**A.** 90%

**Q.** And the Recovery ([1]; Plasma (citrate), added 10 ng/ml)?
**A.** 104%

**Q.** What about the Recovery ([1]; Plasma (heparine), added 3 ng/ml) of the same molecule?
**A.** 107%

**Q.** And the Recovery ([1]; Plasma (heparine), added 10 ng/ml)?
**A.** 90%

**Q.** What about the Recovery ([1]; Plasma (heparine), added 30 ng/ml) of the same molecule?
**A.** 96%

**Q.** What about the Recovery ([1]; Saliva, added 10 ng/ml) of the same molecule?
**A.** 106%

**Q.** What about the Recovery ([1]; Serum, added 10 ng/ml) of the same molecule?
**A.** 91%

**Q.** What about the Recovery ([1]; Urine, added 10 ng/ml) of the same molecule?
**A.** 95%

**Q.** What about the sensivity ([1]; with the extraction method) of the same molecule?
**A.** > 1 ng/mL

**Q.** What about the sensivity [2] of the same molecule?
**A.** about 20 ng/ml

**Q.** What about the Lorazepam found [2, 3] of the same molecule?
**A.** 115 ng/mL

**Q.** What about the Recovery [2, 3] of the same molecule?
**A.** 115%

**Q.** What about the Lorazepam found [2, 4] of the same molecule?
**A.** 254 ng/mL

**Q.** And the Recovery [2, 4]?
**A.** 102%

**Q.** And the Lorazepam found [2, 5]?
**A.** 486 ng/mL

**Q.** And the Recovery [2, 5]?
**A.** 97%

**Q.** What about the Lorazepam found [2, 6] of the same molecule?
**A.** 99 ng/mL

**Q.** And the Recovery [2, 6]?
**A.** 99%

**Q.** What about the Lorazepam found [2, 7] of the same molecule?
**A.** 227 ng/mL

**Q.** And the Recovery [2, 7]?
**A.** 91%

**Q.** What about the Lorazepam found [2, 8] of the same molecule?
**A.** 409 ng/mL

**Q.** What about the Recovery [2, 8] of the same molecule?
**A.** 82%

**Q.** And the Lorazepam found ([2]; Saliva, added 20 ng/ml)?
**A.** 16 ng/mL

**Q.** What about the Recovery ([2]; Saliva, added 20 ng/ml) of the same molecule?
**A.** 80%

**Q.** What about the Lorazepam found ([2]; Urine, added 20 ng/ml) of the same molecule?
**A.** 17.5 ng/mL

**Q.** And the Recovery ([2]; Urine, added 20 ng/ml)?
**A.** 87%
